{
  "source": "patent US12029716B2",
  "about": "“Derivatives of korormicin useful as antibiotics” (Viotika Life Sciences Inc., priority 2015, dated 2024)",
  "tested_on": "Chlamydia trachomatis",
  "assay": "C. trachomatis infection of HeLa cells (chlamydial inclusions, immunocytochemistry)",
  "type": "cell-based",
  "method": "Chlamydia trachomatis (C. trachomatis) propagation and treatment were carried out as follows. C. trachomatis was propagated in HeLa cells. The titer of C. trachomatis was determined in cyclohexamide-treated HeLa cells, and concentrations used were expressed as inclusion forming units (IFU) per mL.\nAssessment of the level of infection was determined as follows. HeLa cells were seeded on glass coverslips in 24-well plates at 3×10^4 cells/well and inoculated with C. trachomatis and then treated with antibiotic (or other compounds of interest). After 48 hours, the infected cells were fixed with 100% methanol and then incubated with anti-Chlamydia monoclonal antibody. Inclusion bodies were visualized by staining with FITC-conjugated secondary antibody and DAPI as counterstaining. The samples were examined by a fluorescence microscopy. Number of inclusions was calculated per 100 cells.\nAssessment of antichlamydial activity of Korormicin (Scheme shown in FIG. 1) and PEG-2 (Scheme shown in FIG. 2) were performed as follows. Cells were infected with C. trachomatis and treated with different concentrations of antibiotic of choice. After 48 h of C. trachomatis was collected (P1) and used to infect fresh cells. Subsequent collections of C. trachomatis were used to obtain P2, P3, P4 and P5 stocks of C. trachomatis. […]",
  "data": [
    {"smiles": "CCCCCCCC[C@H]1O[C@H]1C/C=C/C=C\\[C@H](O)CC(=O)NC1=C[C@](C)(CC)OC1=O", "note": "[Korormicin, (3R,4Z,6E)-N-[(5S)-5-Ethyl-5-methyl-2-oxo-2,5-dihydro-3-furanyl]-3-hydroxy-8-[(2S,3R)-3-octyl-2-oxiranyl]-4,6-octadienamide]", "values": [
      {"measurement": "MIC50 in excess of effective inhibitory concentration measured for isolated Na+-NQR", "value": "approximately six orders of magnitude"}
    ]}
  ]
}
